Experimental data: US6921641
Results are given in words; binding and its absence hold for the method and conditions named. Some results given as binding are weak or reduced against the parent protein; the word gives no strength.

Experiments:
[1] = target: Bacillus caldotenax (Bca) UvrA protein (Bacillus caldotenax); assay: gel mobility shift; slower band taken as the UvrA2 Δβh UvrB-DNA complex; competition with wt UvrB on F26-50 dsDNA, 55° C.
[2] = target: Bacillus caldotenax (Bca) UvrA protein (Bacillus caldotenax); assay: ATPase activity of UvrA + Δβh UvrB, with the gel mobility shift results

B1: β-hairpin deletion mutant of the B. caldotenax UvrB protein (Δβh UvrB) (protein)
chain: VEGRFQLVAPYEPQGDQPQAIAKLVDGLRRGVKHQTLLGATGTGKTFTISNVIAQVNKPTLVIAHNKTLAGQLYSELKEFFPHNAVEYFVSYYDYYGAKINDEIDKLRHSATSALFERRDVIIVASVSCIYGLGSPEEYRELVVSLRVGMEIERNALLRRLVDIQYDRNDIDFRRGTFRVRGDVVEIFPASRDEHCIRVEFFGDEIERIREVDALTGEVLGEREHVAIFPASHFVTREEKMRLAIQNIEQELEERLAELRAQGKLLEAQRLEQRTRYDLEMMREMGFCSGIENYSRHLALRPPGSTPYTLLDYFPDDFLIIVDESHVTLPQLRGMYNGDRARKQVLVDHGFRLPSALDNRPLTFEEFEQKINQIIYVSATPGPYELEHSPGVVEQIIRPTGLLDPTIDVRPTKGQIDDLIGEIRERVERNERTLVTTLTKKMAEDLTDYLKEAGIKVAYLHSEIKTLERIEIIRDLRLGKYDVLVGINLLREGLDIPEVSLVAILDADKEGFLRSERSLIQTIGRAARNANGHVIMYADTITKSMEIAIQETKRRRAIQEEYNRKHGIVPRTVKKEIRDVIRATYAAEETEMYEAKPAAAMTKQEREELIRTLEAEMKEAAKALDFERAAQLRDIIFELKAEG
For B1, the binding [1] was “binds” and the binding [2] was “binds”.
